# Laboratory results as given in the supplement of paper PMC10849652.
# By UniProt entry, the sequences of proteins in these tests, tags left out. Where a name states a change or a piece, a line headed by the entry shows the natural chain unless it says otherwise.
# UniProt Q9Y6K0: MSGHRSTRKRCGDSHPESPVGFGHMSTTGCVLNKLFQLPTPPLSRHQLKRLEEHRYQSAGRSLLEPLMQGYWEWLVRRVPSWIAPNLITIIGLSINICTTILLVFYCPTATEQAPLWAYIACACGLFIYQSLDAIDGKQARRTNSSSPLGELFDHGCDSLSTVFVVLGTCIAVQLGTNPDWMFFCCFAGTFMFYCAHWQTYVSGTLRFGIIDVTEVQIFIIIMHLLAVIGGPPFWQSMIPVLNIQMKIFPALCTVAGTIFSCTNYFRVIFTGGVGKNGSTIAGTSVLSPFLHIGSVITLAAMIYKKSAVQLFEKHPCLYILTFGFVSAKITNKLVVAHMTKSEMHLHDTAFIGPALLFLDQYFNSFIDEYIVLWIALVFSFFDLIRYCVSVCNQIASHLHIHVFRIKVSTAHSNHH
# UniProt Q9NYV4, whole entry, looked up: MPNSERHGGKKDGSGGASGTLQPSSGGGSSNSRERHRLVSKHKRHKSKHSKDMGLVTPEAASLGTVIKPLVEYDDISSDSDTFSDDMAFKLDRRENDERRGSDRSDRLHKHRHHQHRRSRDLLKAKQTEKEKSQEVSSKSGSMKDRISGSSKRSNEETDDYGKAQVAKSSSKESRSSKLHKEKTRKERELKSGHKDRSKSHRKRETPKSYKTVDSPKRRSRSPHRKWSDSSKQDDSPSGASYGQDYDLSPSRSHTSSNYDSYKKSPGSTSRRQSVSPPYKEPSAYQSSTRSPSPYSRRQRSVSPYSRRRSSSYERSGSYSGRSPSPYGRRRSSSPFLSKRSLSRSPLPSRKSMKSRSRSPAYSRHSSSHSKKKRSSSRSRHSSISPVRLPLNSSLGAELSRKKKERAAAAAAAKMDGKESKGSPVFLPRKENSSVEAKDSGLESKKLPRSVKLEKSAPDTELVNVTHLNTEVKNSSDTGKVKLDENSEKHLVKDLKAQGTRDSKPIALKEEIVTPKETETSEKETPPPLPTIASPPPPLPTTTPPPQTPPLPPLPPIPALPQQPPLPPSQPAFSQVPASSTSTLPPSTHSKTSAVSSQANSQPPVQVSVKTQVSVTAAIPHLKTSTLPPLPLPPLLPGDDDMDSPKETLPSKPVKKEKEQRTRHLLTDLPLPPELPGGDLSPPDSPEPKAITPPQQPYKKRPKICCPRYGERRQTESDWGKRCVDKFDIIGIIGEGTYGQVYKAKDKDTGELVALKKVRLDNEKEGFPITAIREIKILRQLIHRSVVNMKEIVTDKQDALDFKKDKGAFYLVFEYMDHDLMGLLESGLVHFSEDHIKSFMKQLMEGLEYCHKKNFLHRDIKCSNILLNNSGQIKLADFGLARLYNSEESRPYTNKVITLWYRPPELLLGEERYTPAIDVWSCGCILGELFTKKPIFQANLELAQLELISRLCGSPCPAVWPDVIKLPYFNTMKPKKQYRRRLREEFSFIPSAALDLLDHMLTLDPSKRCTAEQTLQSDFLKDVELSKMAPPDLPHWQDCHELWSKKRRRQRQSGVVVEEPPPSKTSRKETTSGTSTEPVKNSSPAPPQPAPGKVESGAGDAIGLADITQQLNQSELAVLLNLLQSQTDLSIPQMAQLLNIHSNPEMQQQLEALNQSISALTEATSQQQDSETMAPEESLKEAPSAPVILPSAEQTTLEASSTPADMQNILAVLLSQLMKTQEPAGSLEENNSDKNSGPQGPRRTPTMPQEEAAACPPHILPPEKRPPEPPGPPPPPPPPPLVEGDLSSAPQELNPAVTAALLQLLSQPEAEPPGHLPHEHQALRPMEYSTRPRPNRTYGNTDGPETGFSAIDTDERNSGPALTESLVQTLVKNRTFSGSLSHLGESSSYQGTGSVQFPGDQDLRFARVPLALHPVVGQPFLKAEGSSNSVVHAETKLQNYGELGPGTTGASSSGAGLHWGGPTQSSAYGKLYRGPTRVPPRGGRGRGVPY
# UniProt P35790, whole entry, looked up: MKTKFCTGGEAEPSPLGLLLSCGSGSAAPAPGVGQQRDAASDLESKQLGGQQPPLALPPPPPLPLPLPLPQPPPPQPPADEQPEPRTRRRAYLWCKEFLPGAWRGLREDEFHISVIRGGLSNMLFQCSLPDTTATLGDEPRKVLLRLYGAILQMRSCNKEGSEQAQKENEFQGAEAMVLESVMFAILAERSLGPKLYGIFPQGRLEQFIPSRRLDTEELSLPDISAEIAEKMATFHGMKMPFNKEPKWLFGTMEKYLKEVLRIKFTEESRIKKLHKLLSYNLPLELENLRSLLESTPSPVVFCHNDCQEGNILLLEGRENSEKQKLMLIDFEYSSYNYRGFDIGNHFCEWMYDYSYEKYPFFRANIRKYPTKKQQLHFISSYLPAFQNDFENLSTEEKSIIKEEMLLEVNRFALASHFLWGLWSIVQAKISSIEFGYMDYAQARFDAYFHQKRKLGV
# UniProt Q9H444: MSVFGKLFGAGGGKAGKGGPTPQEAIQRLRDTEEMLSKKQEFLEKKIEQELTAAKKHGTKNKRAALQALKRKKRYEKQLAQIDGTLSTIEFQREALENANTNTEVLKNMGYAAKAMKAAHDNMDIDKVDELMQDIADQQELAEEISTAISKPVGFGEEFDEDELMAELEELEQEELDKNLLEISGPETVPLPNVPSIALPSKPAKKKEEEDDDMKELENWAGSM
# UniProt Q12873: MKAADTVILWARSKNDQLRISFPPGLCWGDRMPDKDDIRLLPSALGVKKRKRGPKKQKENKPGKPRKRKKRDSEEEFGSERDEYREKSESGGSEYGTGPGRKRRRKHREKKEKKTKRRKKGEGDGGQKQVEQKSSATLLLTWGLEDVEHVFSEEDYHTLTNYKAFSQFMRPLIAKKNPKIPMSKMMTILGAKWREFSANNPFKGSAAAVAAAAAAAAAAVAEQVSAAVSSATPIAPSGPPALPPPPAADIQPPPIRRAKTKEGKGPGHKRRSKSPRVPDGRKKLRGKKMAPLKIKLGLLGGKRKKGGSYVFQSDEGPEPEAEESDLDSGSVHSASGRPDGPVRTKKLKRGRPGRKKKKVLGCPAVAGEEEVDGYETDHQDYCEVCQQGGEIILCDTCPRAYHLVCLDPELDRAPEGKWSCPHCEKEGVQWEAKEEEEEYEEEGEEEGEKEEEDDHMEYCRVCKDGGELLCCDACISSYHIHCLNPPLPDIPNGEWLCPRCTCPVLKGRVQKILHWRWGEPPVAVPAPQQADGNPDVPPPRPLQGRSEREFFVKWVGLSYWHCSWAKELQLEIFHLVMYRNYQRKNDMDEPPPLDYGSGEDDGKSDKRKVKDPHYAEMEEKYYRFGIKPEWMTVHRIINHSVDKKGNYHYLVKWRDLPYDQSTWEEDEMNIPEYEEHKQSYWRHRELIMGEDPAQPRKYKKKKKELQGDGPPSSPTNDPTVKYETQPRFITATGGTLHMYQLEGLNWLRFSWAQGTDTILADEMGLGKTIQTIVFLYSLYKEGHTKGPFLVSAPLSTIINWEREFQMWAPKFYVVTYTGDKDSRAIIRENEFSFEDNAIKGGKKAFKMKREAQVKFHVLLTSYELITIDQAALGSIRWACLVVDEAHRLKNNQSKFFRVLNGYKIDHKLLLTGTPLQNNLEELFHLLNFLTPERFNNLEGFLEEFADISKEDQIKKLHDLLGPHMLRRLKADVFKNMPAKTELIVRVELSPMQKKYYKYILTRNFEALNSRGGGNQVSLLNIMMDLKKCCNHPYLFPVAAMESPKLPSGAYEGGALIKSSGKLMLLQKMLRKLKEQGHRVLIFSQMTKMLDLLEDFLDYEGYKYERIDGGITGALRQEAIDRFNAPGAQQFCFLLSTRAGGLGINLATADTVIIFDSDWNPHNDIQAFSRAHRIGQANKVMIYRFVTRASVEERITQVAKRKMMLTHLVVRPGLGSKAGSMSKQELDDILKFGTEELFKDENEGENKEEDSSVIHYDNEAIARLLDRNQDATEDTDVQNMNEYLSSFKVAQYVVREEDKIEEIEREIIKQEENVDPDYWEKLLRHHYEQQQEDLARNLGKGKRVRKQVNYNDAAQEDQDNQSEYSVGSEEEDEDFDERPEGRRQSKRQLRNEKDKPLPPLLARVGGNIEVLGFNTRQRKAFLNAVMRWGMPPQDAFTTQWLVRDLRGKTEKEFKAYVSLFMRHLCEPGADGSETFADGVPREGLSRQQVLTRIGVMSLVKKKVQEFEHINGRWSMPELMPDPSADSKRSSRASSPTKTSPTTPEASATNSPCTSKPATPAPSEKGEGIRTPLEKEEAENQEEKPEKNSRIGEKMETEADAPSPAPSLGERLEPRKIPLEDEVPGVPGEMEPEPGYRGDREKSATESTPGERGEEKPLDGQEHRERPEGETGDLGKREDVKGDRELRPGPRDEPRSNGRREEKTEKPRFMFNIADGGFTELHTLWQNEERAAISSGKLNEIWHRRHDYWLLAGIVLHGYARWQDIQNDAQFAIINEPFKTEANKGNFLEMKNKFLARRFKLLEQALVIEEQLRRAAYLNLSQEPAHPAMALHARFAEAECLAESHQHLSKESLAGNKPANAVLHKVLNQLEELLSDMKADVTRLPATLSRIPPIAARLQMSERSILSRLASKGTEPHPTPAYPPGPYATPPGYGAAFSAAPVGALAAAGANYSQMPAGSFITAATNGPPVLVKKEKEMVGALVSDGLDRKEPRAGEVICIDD
# UniProt Q96CF2: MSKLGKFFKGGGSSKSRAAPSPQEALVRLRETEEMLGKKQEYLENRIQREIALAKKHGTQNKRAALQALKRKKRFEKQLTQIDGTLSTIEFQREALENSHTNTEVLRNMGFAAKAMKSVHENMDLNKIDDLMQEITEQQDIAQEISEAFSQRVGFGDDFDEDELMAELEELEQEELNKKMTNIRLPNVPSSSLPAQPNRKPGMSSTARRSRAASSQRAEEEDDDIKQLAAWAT
# UniProt O15182: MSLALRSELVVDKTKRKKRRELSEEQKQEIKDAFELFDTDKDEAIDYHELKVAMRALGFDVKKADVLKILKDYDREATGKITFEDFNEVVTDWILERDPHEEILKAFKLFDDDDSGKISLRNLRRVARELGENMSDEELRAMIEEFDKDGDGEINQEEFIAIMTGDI
# UniProt P06493, whole entry, looked up: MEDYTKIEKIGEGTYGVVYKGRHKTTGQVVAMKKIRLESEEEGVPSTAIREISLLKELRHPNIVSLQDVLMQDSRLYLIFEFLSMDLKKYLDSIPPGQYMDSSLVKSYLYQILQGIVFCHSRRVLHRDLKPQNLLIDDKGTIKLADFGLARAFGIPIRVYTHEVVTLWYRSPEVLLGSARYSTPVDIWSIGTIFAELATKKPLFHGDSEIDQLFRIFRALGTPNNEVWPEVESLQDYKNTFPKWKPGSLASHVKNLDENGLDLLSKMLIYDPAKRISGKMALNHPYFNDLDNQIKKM
# UniProt Q9UEE9, whole entry, looked up: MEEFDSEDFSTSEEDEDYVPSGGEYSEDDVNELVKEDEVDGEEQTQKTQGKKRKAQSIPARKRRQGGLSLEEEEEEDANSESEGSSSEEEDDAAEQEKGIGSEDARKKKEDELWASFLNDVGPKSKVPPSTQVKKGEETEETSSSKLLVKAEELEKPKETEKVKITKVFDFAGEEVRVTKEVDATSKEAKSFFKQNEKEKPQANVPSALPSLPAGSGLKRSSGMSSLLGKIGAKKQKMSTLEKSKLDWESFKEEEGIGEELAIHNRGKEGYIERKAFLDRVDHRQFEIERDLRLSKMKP
# UniProt Q13111, whole entry, looked up: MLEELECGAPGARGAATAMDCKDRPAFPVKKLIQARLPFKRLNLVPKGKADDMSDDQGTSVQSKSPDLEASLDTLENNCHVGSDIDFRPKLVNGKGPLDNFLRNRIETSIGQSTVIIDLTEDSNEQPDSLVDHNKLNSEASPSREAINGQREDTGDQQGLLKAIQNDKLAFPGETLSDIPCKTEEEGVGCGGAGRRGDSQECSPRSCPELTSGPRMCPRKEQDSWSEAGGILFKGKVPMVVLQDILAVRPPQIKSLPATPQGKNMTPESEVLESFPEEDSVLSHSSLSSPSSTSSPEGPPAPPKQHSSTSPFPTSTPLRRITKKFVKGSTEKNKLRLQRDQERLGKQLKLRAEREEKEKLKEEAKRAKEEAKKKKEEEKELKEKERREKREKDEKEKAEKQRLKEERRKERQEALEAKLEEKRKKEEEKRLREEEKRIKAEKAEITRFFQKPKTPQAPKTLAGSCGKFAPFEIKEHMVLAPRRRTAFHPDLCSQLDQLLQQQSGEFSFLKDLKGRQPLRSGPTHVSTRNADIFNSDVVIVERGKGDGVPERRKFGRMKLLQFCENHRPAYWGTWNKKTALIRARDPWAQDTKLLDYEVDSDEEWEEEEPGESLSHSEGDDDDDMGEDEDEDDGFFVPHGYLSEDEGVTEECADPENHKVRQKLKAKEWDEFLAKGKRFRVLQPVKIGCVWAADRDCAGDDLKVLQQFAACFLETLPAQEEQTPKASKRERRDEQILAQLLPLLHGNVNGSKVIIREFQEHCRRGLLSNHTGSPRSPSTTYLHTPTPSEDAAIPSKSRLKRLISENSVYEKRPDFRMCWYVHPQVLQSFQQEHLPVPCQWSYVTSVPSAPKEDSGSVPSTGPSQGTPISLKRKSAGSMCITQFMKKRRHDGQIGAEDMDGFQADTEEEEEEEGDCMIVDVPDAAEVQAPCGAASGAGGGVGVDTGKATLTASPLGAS
# Some of the results follow.
# Assays:
# Experiment in all cases: log2 fold change, soluble protein after heating vs DMSO (PISA); higher = thermal stabilisation; K562 cells, 10 uM, 30 min; active = over 0.2 and 3.5 SD of the protein, either way, in both replicates (recomputed)
# [1] = compound: COC1=CC=C(C=C1)CN2C=CC3=C2C=C(C=C3)C(=O)NO
# In short: (§1)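 K562 cells at 2×10^6 cells/mL were given 10 μM compound for 30 min. Aliquots then went through 3 min of heating across 48°C-58°C, were pooled, and were extracted in PBS with 0.5% NP-40 at 4°C, and the supernatant after 21,000xg for 90 min was quantified by TMTpro 16plex LC-MS/MS with channel sums equalised. Thermal stability relative to control samples, from duplicates, is given as log2 fold change.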
# filanesib = compound: CON(C)C(=O)N1N=C(c2cc(F)ccc2F)S[C@@]1(CCCN)c1ccccc1 [filanesib]
# In short: as §1
# zotarolimus = compound: CO[C@H]1C[C@@H]2CC[C@@H](C)[C@@](O)(O2)C(=O)C(=O)N2CCCC[C@H]2C(=O)O[C@H]([C@H](C)C[C@@H]2CC[C@H](n3cnnn3)[C@H](OC)C2)CC(=O)[C@H](C)/C=C(\C)[C@@H](O)[C@@H](OC)C(=O)[C@H](C)C[C@H](C)/C=C/C=C/C=C/1C [zotarolimus]
# In short: as §1
# idasanutlin = compound: COc1cc(C(=O)O)ccc1NC(=O)[C@@H]1N[C@@H](CC(C)(C)C)[C@](C#N)(c2ccc(Cl)cc2F)[C@H]1c1cccc(Cl)c1F [idasanutlin]
# In short: as §1
# alisertib = compound: COc1cc(Nc2ncc3c(n2)-c2ccc(Cl)cc2C(c2c(F)cccc2OC)=NC3)ccc1C(=O)O [alisertib]
# In short: as §1
# [2] = compound: COc1cc2nc(-c3cc(F)ccc3O)nc(N[C@@H]3CNC[C@H]3C(C)(C)O)c2cc1OC
# In short: as §1
# gefitinib = compound: COc1cc2ncnc(Nc3ccc(F)c(Cl)c3)c2cc1OCCCN1CCOCC1 [gefitinib]
# In short: as §1
# [3] = compound: COc1cccc2cc(-c3nc([C@H]4CC[C@H](C(=O)O)CC4)n4ncnc(N)c34)[nH]c12
# In short: as §1
# lapatinib = compound: CS(=O)(=O)CCNCc1ccc(-c2ccc3ncnc(Nc4ccc(OCc5cccc(F)c5)c(Cl)c4)c3c2)o1 [lapatinib]
# In short: as §1
# pictilisib = compound: CS(=O)(=O)N1CCN(Cc2cc3nc(-c4cccc5[nH]ncc45)nc(N4CCOCC4)c3s2)CC1 [pictilisib]
# In short: as §1
# [4] = compound: CS(=O)(=O)c1ccc(-c2cnc(N)c(C(=O)Nc3ccccc3)n2)cc1
# In short: as §1
# crizotinib = compound: C[C@@H](Oc1cc(-c2cnn(C3CCNCC3)c2)cnc1N)c1c(Cl)ccc(F)c1Cl [crizotinib]
# In short: as §1
# [5] = compound: C[C@@H]1COCCN1C2=NC(=NC(=C2)C3(CC3)S(=O)(=O)C)C4=C5C=CNC5=CC=C4
# In short: as §1
# [6] = compound: C[C@H](C1=CC=C(C=C1)C(=O)NC2=C3C=CNC3=NC=C2)N
# In short: as §1
# gandotinib = compound: Cc1cc(Nc2cc(CN3CCOCC3)c3nc(C)c(Cc4ccc(Cl)cc4F)n3n2)n[nH]1 [gandotinib]
# In short: as §1
# [7] = compound: Cc1cc(SCc2sc(-c3ccc(C(F)(F)F)cc3)nc2C)ccc1OCC(=O)O
# In short: as §1
# doramapimod = compound: Cc1ccc(-n2nc(C(C)(C)C)cc2NC(=O)Nc2ccc(OCCN3CCOCC3)c3ccccc23)cc1 [doramapimod]
# In short: as §1
# ispinesib = compound: Cc1ccc(C(=O)N(CCCN)[C@@H](c2nc3cc(Cl)ccc3c(=O)n2Cc2ccccc2)C(C)C)cc1 [ispinesib]
# In short: as §1
# duvelisib = compound: C[C@H](Nc1ncnc2nc[nH]c12)c1cc2cccc(Cl)c2c(=O)n1-c1ccccc1 [duvelisib]
# In short: as §1
# tozasertib = compound: Cc1cc(Nc2cc(N3CCN(C)CC3)nc(Sc3ccc(NC(=O)C4CC4)cc3)n2)n[nH]1 [tozasertib]
# In short: as §1
Target,log2 fold change [1],log2 fold change (filanesib),log2 fold change (zotarolimus),log2 fold change (idasanutlin),log2 fold change (alisertib),log2 fold change [2],log2 fold change (gefitinib),log2 fold change [3],log2 fold change (lapatinib),log2 fold change (pictilisib),log2 fold change [4],log2 fold change (crizotinib),log2 fold change [5],log2 fold change [6],log2 fold change (gandotinib),log2 fold change [7],log2 fold change (doramapimod),log2 fold change (ispinesib),log2 fold change (duvelisib),log2 fold change (tozasertib)
CEPT1 (UniProt Q9Y6K0),inactive: 0.029,inactive: -0.277,inactive: -0.095,inactive: -0.142,inactive: 0.009,inactive: 0.022,inactive: -0.025,inactive: 0.036,inactive: 0.095,inactive: 0.011,inactive: 0.055,inactive: -0.226,inactive: 0.146,inactive: 0.042,inactive: -0.268,inactive: 0.047,inactive: 0.021,inactive: -0.214,–,–
CDK12 (UniProt Q9NYV4),inactive: -0.019,inactive: 0.463,inactive: -0.072,inactive: 0.303,inactive: 0.062,inactive: -0.226,inactive: 0.005,inactive: -0.03,inactive: 0.134,inactive: -0.018,inactive: -0.056,inactive: -0.054,inactive: -0.362,inactive: 0.376,active: -1.11,inactive: 0.051,inactive: 0.299,inactive: 0,–,–
CDC42BPB (UniProt Q9Y5S2),inactive: -0.062,inactive: 0.147,inactive: 0.089,inactive: 0.062,inactive: -0.1,inactive: -0.371,inactive: -0.07,inactive: 0.071,inactive: -0.009,inactive: 0.025,inactive: 0.068,inactive: 0.056,inactive: -0.031,inactive: -0.149,inactive: 0.029,inactive: 0.005,inactive: 0.01,inactive: -0.148,–,–
CHKA (UniProt P35790),inactive: -0.021,inactive: 0.02,inactive: -0.148,inactive: -0.009,inactive: -0.032,inactive: 0.065,inactive: -0.016,inactive: 0.004,inactive: -0.013,inactive: 0.041,inactive: -0.022,inactive: 0.075,inactive: -0.034,inactive: 0.046,inactive: 0.009,inactive: -0.012,inactive: -0.011,inactive: 0.048,–,–
CHMP4B (UniProt Q9H444),inactive: -0.101,inactive: -0.106,inactive: -0.015,inactive: 0.034,inactive: -0.036,inactive: 0.044,inactive: -0.005,inactive: 0.08,inactive: -0.09,inactive: -0.094,inactive: -0.067,inactive: -0.036,inactive: -0.011,inactive: -0.022,inactive: -0.075,inactive: -0.014,inactive: 0.005,inactive: -0.008,–,–
CHD3 isoform 3 (UniProt Q12873),inactive: -0.137,inactive: 0.082,inactive: 0.174,inactive: 0.097,inactive: -0.001,inactive: -0.207,inactive: 0,inactive: -0.051,inactive: -0.016,inactive: -0.024,inactive: -0.036,inactive: -0.128,inactive: 0.068,inactive: 0.079,inactive: 0.237,inactive: 0.14,inactive: 0.026,inactive: -0.193,–,–
CHMP4C (UniProt Q96CF2),inactive: 0.163,inactive: 0.014,inactive: -0.028,inactive: -0.001,inactive: 0.037,inactive: 0.064,inactive: -0.014,inactive: 0.02,inactive: -0.027,inactive: -0.005,inactive: -0.044,inactive: -0.007,inactive: -0.256,inactive: -0.003,inactive: 0.073,inactive: 0.03,inactive: -0.046,inactive: -0.079,–,–
CDK2 (UniProt P24941),inactive: -0.043,inactive: -0.044,inactive: 0.003,inactive: -0.07,inactive: -0.002,inactive: 0.024,inactive: -0.019,inactive: 0.043,inactive: -0.029,inactive: -0.032,inactive: 0.003,inactive: -0.018,inactive: 0.055,–,inactive: -0.002,inactive: 0.009,inactive: -0.048,inactive: 0.002,inactive: 0.013,inactive: -0.051
CETN3 (UniProt O15182),inactive: -0.211,inactive: -0.026,inactive: 0.041,inactive: 0.068,inactive: -0.058,inactive: 0.161,inactive: -0.001,inactive: 0.072,inactive: -0.175,inactive: 0.061,inactive: -0.018,inactive: 0.014,inactive: -0.084,inactive: -0.071,inactive: 0.094,inactive: -0.094,inactive: -0.018,inactive: 0,–,–
CDK5 (UniProt Q00535),inactive: 0.004,inactive: 0.024,inactive: -0.003,inactive: -0.099,inactive: -0.046,inactive: 0.054,inactive: 0.002,inactive: 0,inactive: -0.033,inactive: -0.011,inactive: 0.019,inactive: -0.076,inactive: 0.037,inactive: -0.022,inactive: -0.003,inactive: 0.008,inactive: 0.088,inactive: -0.033,–,–
CHERP (UniProt Q8IWX8),inactive: 0.04,inactive: 0.266,inactive: 0.051,inactive: 0.063,inactive: 0.002,inactive: -0.227,inactive: -0.02,inactive: 0.002,inactive: -0.023,inactive: 0.038,inactive: -0.087,inactive: -0.108,inactive: 0.109,inactive: 0.009,inactive: -0.047,inactive: 0.138,inactive: 0.01,inactive: -0.004,–,–
CELF2 isoform 3 (UniProt O95319),inactive: 0.115,inactive: 0.052,inactive: -0.035,inactive: -0.044,inactive: -0.122,inactive: 0.1,inactive: -0.027,inactive: -0.006,inactive: 0.032,inactive: 0.051,inactive: -0.107,inactive: 0.098,inactive: 0.006,inactive: -0.038,inactive: -0.027,inactive: 0.102,inactive: 0.05,inactive: -0.066,–,–
CDK1 (UniProt P06493),inactive: 0.04,inactive: 0.024,inactive: 0.007,inactive: 0.02,inactive: -0.083,inactive: -0.036,inactive: 0.009,inactive: 0.017,inactive: 0.008,inactive: -0.002,inactive: 0.005,inactive: -0.128,inactive: -0.005,inactive: -0.019,inactive: -0.171,inactive: 0,inactive: -0.031,inactive: 0.033,–,–
CFDP1 (UniProt Q9UEE9),inactive: -0.036,inactive: -0.039,inactive: -0.051,inactive: 0.015,inactive: -0.034,inactive: 0.044,inactive: 0.019,inactive: 0.062,inactive: 0.007,inactive: 0.017,inactive: 0.008,inactive: 0.037,inactive: 0.044,inactive: -0.026,inactive: 0.04,inactive: -0.06,inactive: -0.015,inactive: -0.063,inactive: 0.039,inactive: -0.009
CHAMP1 (UniProt Q96JM3),inactive: -0.001,inactive: -0.008,inactive: 0.07,inactive: 0.005,inactive: 0.006,inactive: 0.025,inactive: 0.029,inactive: 0.022,inactive: -0.065,inactive: 0.107,inactive: 0.02,inactive: -0.154,inactive: 0.074,inactive: -0.071,inactive: -0.046,inactive: -0.049,inactive: -0.003,inactive: -0.185,–,–
CHAF1A (UniProt Q13111),inactive: -0.149,inactive: 0.143,inactive: -0.145,inactive: 0.05,inactive: 0,inactive: 0.007,inactive: 0.169,inactive: 0.004,inactive: 0.169,inactive: 0.031,inactive: -0.015,inactive: 0.058,inactive: -0.058,inactive: 0.15,inactive: -0.035,inactive: -0.04,inactive: 0.025,inactive: -0.098,–,–
CDK11B (UniProt P21127),inactive: -0.253,inactive: -0.009,inactive: -0.046,inactive: -0.094,inactive: 0.011,inactive: 0.151,inactive: 0.095,inactive: 0.097,inactive: -0.069,inactive: -0.057,inactive: 0.025,active: 1.24,inactive: 0.052,inactive: 0.166,inactive: 0.105,inactive: 0.007,inactive: 0,inactive: 0.022,–,–

# No new results follow: an excerpt of the list.
Target,log2 fold change [1],log2 fold change (filanesib),log2 fold change (zotarolimus),log2 fold change (idasanutlin),log2 fold change (alisertib),log2 fold change [2],log2 fold change (gefitinib),log2 fold change [3],log2 fold change (lapatinib),log2 fold change (pictilisib),log2 fold change [4],log2 fold change (crizotinib),log2 fold change [5],log2 fold change [6],log2 fold change (gandotinib),log2 fold change [7],log2 fold change (doramapimod),log2 fold change (ispinesib),log2 fold change (duvelisib),log2 fold change (tozasertib)
CDK2 (UniProt P24941),inactive: -0.043,inactive: -0.044,inactive: 0.003,inactive: -0.07,inactive: -0.002,inactive: 0.024,inactive: -0.019,inactive: 0.043,inactive: -0.029,inactive: -0.032,inactive: 0.003,inactive: -0.018,inactive: 0.055,–,inactive: -0.002,inactive: 0.009,inactive: -0.048,inactive: 0.002,inactive: 0.013,inactive: -0.051
CETN3 (UniProt O15182),inactive: -0.211,inactive: -0.026,inactive: 0.041,inactive: 0.068,inactive: -0.058,inactive: 0.161,inactive: -0.001,inactive: 0.072,inactive: -0.175,inactive: 0.061,inactive: -0.018,inactive: 0.014,inactive: -0.084,inactive: -0.071,inactive: 0.094,inactive: -0.094,inactive: -0.018,inactive: 0,–,–
